Laboratory results: US8420777B2, “Compounds that inhibit Hsp90 protein-protein interactions with IAP proteins” (University of Massachusetts, priority 2004, dated 2013)
At least one peptide structure holds a part that was inferred or is arguable (an end, a ring closure or a residue).

Test system: MCF-7 tumors
Assay: Immunohistochemistry of recovered MCF-7 tumors for Hsp90 client proteins
Format: in vivo, SCID/beige mice
Details: end of treatment, versus saline group

SMILES: CSCC[C@@H](NC(=O)[C@@H](CCCCN)NC(=O)[C@@H](Cc1c[nH]c2ccccc12)NC(=O)[C@@H](CCCCN)NC(=O)[C@@H](CCCCN)NC(=O)CCCCCNC(=O)CCCC[C@@H]1SC[C@@H]2NC(=O)N[C@@H]21)C(=O)N[C@H](CCCNC(=N)N)C(=O)N[C@H](CCCNC(=N)N)C(=O)N[C@H](CC(N)=O)C(=O)N[C@H](CCC(N)=O)C(=O)N[C@H](Cc1ccccc1)C(=O)N[C@H](Cc1c[nH]c2ccccc12)C(=O)N[C@@H](C(=O)N[C@H](CCCCN)C(=O)N[C@@H](C(=O)N[C@H](CCC(N)=O)C(=O)N[C@H](CCCNC(=N)N)C(=O)N[C@H](CC(C)C)C(=O)N[C@H](Cc1ccccc1)C(=O)N[C@H](C)C(=O)N[C@H](CS)C(=O)NCC(=O)N[C@H](CO)C(=O)N[C@H](CO)C(=O)N[C@H](Cc1c[nH]cn1)C(=O)N[C@H](CCCCN)C(N)=O)C(C)C)C(C)C [P3]
- expression of survivin in tumor cells: severely attenuated
